# Source: PubChem BioAssay AID504594 (Broad Institute, 2011)
# Several values for one entry are separate records, joined by “and”; a condition that tells them apart may be missing. Equal entries are not always repeated. Screen size: about 2,000 compounds; fewer than 10 were called active.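 Rule for the calls: active = growth inhibition of at least 75% in every replicate, which also brings the mean inhibition to 75% or more; inconclusive = mean inhibition 75% or more but some replicate under 75%; inactive = the rest.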 The list shows a part of the results.
# Experiment: reduced viability of yeast carrying PfHsp90 – S. cerevisiae, BacTiter-Glo luminescence, antimalarial PfHsp90 inhibitor project, primary screen (AID 504594);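 note: 0% = DMSO neutral control wells and 100% = 20 µM radicicol control wells; higher value means stronger growth inhibition because the sign is flipped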
# Details: S. cerevisiae expressing PfHsp90, BacTiter-Glo growth, 48 h; at 9.4 µM; hits give high values
row,Compound,growth inhibition
1,COc1ccc(C(=O)Nc2ccccc2C(=O)NCCCn2ccnc2)cc1,inactive: -1.51%
2,CC(C)CC(NC(=O)C(NC(=O)OC(C)(C)C)C(C)C)C(=O)NC(CCC(=O)OCc1ccccc1)C(N)=O (stereo not drawn),inactive: 9.04%
3,O=C(CC1SC(=O)NC1=O)Nc1ccc(Cl)cc1 (stereo not drawn),inactive: 4.58%
4,COc1cc(OC)c2c(C)c(Cl)c(=O)oc2c1,inactive: -0.942%
5,COc1ccc(NC(=O)CC(c2ccccc2)c2ccco2)cc1 (stereo not drawn),inactive: 0.795%
6,CC[C@H]1CN2CCc3cc(OC)c(OC)cc3[C@@H]2C[C@@H]1C[C@H]1NCCc2cc(OC)c(OC)cc21,inactive: -0.432%
7,CCOc1ccc2oc(-c3ccccc3)c(C(=O)O)c2c1,inactive: -4.24%
8,COc1ccc(CCNC(=O)C(=O)Nc2ccc3c(c2)OCO3)cc1OC,inactive: 1.39%
9,CCN(CC)CCNC(=O)c1ccc(NC(C)=O)cc1,inactive: -11% and inactive: 7.54%
10,CNC[C@H](O)c1cccc(O)c1,inactive: 14%
11,COc1ccc2[nH]c(CN3CCN(CC(C)C)C(CCO)C3)c(C)c2c1 (stereo not drawn),inactive: -4.95%
12,Cn1c2ccccc2c2cc(/C=C(\NC(=O)c3ccccc3)C(=O)O)ccc21,inactive: -3.83%
13,c1coc(-c2nnc3n2C2(CCCC2)Cc2ccccc2-3)c1,inactive: 6.62%
14,O=C(/C=C/c1ccco1)Nc1ccccc1C(=O)O,inactive: 8.57%
15,O=C(CN1C(=O)c2ccccc2S1(=O)=O)Nc1ccccc1,inactive: 13.4%
16,COc1cc2c(cc1OC)-c1nnc(C)n1C(C)(C)C2,inactive: 5.21%
17,CCOCC(=O)Nc1ccccc1C(=O)N1CCOCC1,inactive: 0.516%
18,O=C(O)/C=C/c1cccc(OCc2ccccc2)c1,inactive: -8.82%
19,O=C(c1ccc(F)cc1)[C@@H]1[C@@H](C(=O)c2ccccc2)[C@@]2(C(=O)Nc3ccccc32)[C@H]2c3ccccc3C=CN12,inactive: -1.47%
20,C#C[C@]1(O)CC[C@H]2[C@@H]3CCc4cc(OC)ccc4[C@H]3CC[C@@]21C,inactive: -7.32%
21,CC1=C(C)C(=O)C(CCCCC#CCCCC#CCO)=C(C)C1=O,inactive: 2.79%
22,N/C(=N/OS(=O)(=O)c1ccc([N+](=O)[O-])cc1)c1ccncc1,inactive: 15.8%
23,COc1cc2c(cc1O)CC[C@@H]1[C@@H]2CC[C@]2(C)[C@@H](O)CC[C@@H]12,inactive: -1.15%
24,NS(=O)(=O)c1ccc(CCNC(=O)C2CCCN2C(=O)OCc2ccccc2)cc1 (stereo not drawn),inactive: -1.5%

row,Compound,growth inhibition
1,C=CCNc1nc2c(c(=O)n(C)c(=O)n2C)n1CC(=C)C,inactive: -13.3%
2,Clc1ccccc1CN1CCc2sccc2C1,inactive: -0.00592%
3,O=C(/C=C/c1ccccc1)NC(=O)c1ccccc1O,inactive: 5.73%
4,CN(C)CCCN1c2ccccc2CCc2ccc(Cl)cc21,inactive: 5.42%
5,COc1ccc2nc(C)cc(Nc3ccccc3O)c2c1,inactive: 0.534%
6,CC1(C)OC2OC(C(=O)N/N=C/c3ccccc3F)C3OC(C)(C)OC3C2O1 (stereo not drawn),inactive: -0.107%
7,O=C(c1ccc([N+](=O)[O-])cc1)N1CCSC1c1ccccc1Cl (stereo not drawn),inactive: 1.35%
8,O=C(O)Cc1ccc(O)c(F)c1,inactive: 14.1%
9,CC(C)CC(=O)NC(NC(=O)CC(C)C)c1cccc([N+](=O)[O-])c1,inactive: 2.96%
10,O=C1CC(c2ccc(OCCCCCOc3ccc(C4CC(=O)NC4=O)cc3)cc2)C(=O)N1 (stereo not drawn),inactive: -11.1%
11,CS(=O)(=O)Oc1ccc2c(c1)O/C(=C\C=C\c1ccccc1)C2=O,inactive: -3.57%
12,Nc1ncnc2c1ncn2C1OC(CO)C(O)C1O (stereo not drawn),inactive: 33.1%
13,CCCCC[C@H](O)/C=C/[C@@H]1[C@@H](C/C=C\CCCC(=O)O)[C@H]2CO[C@@H]1C2,inactive: -34.3%
14,COc1ccc(O)c(C(=O)/C=C/c2cc3ccccc3o2)c1,inactive: -18.5%
15,CCc1cc2c3c(c(=O)oc2cc1O)CCCC3,inactive: 0.674%
16,O=c1[nH]cc(F)c(=O)[nH]1,inactive: 21.4%
17,CCNC(=S)N1CCN(CCN2C(=O)c3cccc4cccc(c34)C2=O)CC1,inactive: 2.01%
18,CC(=O)c1cccc(NC(=O)N[C@@H](CC(C)C)C(=O)O)c1,inactive: 12.3%
19,CC1(C(=O)O)CCC(C(=O)NC2CCCCCC2)C1(C)C (stereo not drawn),inactive: -6.38%
20,CSCC[C@H](NC(=O)Nc1ccc(C)cc1C)C(=O)O,inactive: -6.89%
21,O=C(CN1C(=O)/C(=C/c2cccc(Br)c2)SC1=S)Nc1cccnc1,inactive: -5.73%
22,CC(C)=CC/C=C1\CCC(C(=O)O)C(C(=O)O)C1 (stereo not drawn),inactive: 5.17%
23,NC(=O)c1ccccc1O,inactive: 1.27%
24,N/C(=N\OS(=O)(=O)c1ccc2ccccc2c1)c1cccnc1,inactive: 13.3%

# 2 entries drawn at random from those above, as already listed:
row,Compound,growth inhibition
22,CC(C)=CC/C=C1\CCC(C(=O)O)C(C(=O)O)C1 (stereo not drawn),inactive: 5.17%
10,O=C1CC(c2ccc(OCCCCCOc3ccc(C4CC(=O)NC4=O)cc3)cc2)C(=O)N1 (stereo not drawn),inactive: -11.1%
